This is one part of the list. This data set is noisy: repeats of one test often differ as much as different tests do.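 U2OS cells expressing ACE2 were combined with U2OS cells expressing full-length spike, and imaging quantified fusion as the fraction of nuclei displaying both cell types' fluorescent markers. Non-toxic compounds with a fusion z-score under -3, i.e., over three standard deviations below the plate's DMSO wells, are called inhibitory hits.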
tested on: U2OS ACE2 x SARS-CoV-2 spike co-culture; experiment: cell-cell fusion (fraction fused) z-score vs plate DMSO control; higher = more fusion; conditions: 30 µM; 5 h; toxicity class: non-toxic, passed QC

Structure (SMILES) | cell-cell fusion (z-score)
C[C@]12CCC(=O)C=C1CCC1C2C(=O)C[C@@]2(C)C1CC[C@]2(O)C(=O)CO (stereo not given in full) | inactive: 1.82
COc1ccc(-n2nc(C(N)=O)c3c2C(=O)N(c2ccc(N4CCCCC4=O)cc2)CC3)cc1 [Apixaban] | inactive: 1.21
COC(=O)c1ccccc1O [Methyl salicylate] | inactive: 0.643
NS(=O)(=O)c1cc2c(cc1Cl)NC(C(Cl)Cl)NS2(=O)=O (stereo not given) | inactive: 1.82
Cc1cc2c(cc1C1(c3ccc(C(=O)O)cn3)CC1)C(C)(C)CCC2(C)C | inactive: 0.561
CN1CCC[C@H]1c1cccnc1.O=C(O)C(O)C(O)C(=O)O.O=C(O)C(O)C(O)C(=O)O | inactive: 3.86
OC[C@H]1O[C@@H](Oc2ccc(O)cc2)[C@H](O)[C@@H](O)[C@@H]1O | inactive: 2.76
CC(C)C[C@H]1C(=O)N2CCC[C@H]2[C@]2(O)O[C@](NC(=O)[C@@H]3C[C@@H]4c5cccc6[nH]cc(c56)C[C@H]4N(C)C3)(C(C)C)C(=O)N12.CC(C)[C@@]1(NC(=O)[C@@H]2C[C@@H]3c4cccc5[nH]cc(c45)C[C@H]3N(C)C2)O[C@@]2(O)[C@@H]3CCCN3C(=O)[C@H](Cc3ccccc3)N2C1=O.CC(C)[C@H]1C(=O)N2CCC[C@H]2[C@]2(O)O[C@](NC(=O)[C@@H]3C[C@@H]4c5cccc6[nH]cc(c56)C[C@H]4N(C)C3)(C(C)C)C(=O)N12.CCC(C)[C@H]1C(=O)N2CCC[C@H]2[C@]2(O)O[C@](NC(=O)[C@@H]3C[C@@H]4c5cccc6[nH]cc(c56)C[C@H]4N(C)C3)(C(C)C)C(=O)N12.CS(=O)(=O)O [Dihydroergotoxine mesylate] | inactive: -0.535
CCn1cc(C(=O)O)c(=O)c2cc(F)c(N3CCNCC3)nc21.CCn1cc(C(=O)O)c(=O)c2cc(F)c(N3CCNCC3)nc21.O.O.O [Enoxacin Sesquihydrate] | inactive: 2.96
C/C(=C\CO)CC[C@H](C)CCC[C@H](C)CCCC(C)C | inactive: 1.51
COC(=O)C1=C(C)NC(C)=C(C(=O)OC)C1c1ccccc1[N+](=O)[O-] [Nifedipine] | inactive: 0.624
Oc1ccc2ccccc2c1 [beta-NAPHTHOL] | inactive: 0.621
CS(=O)(=O)OCCCCOS(C)(=O)=O [Busulfan] | inactive: 2.46
C[C@H](N[C@@H](CCc1ccccc1)C(=O)O)C(=O)N1CCC[C@H]1C(=O)O [Enalaprilat dihydrate] | inactive: 0.932
CN(C)[C@@H]1C(O)=C(C(N)=O)C(=O)[C@@]2(O)C(O)=C3C(=O)c4c(O)ccc(Cl)c4[C@@](C)(O)[C@H]3C[C@@H]12.Cl [Chlortetracycline hydrochloride] | inactive: 1.08

An excerpt from above in order of heavy-atom count, falling.
Structure (SMILES) | cell-cell fusion (z-score)
COC(=O)C1=C(C)NC(C)=C(C(=O)OC)C1c1ccccc1[N+](=O)[O-] [Nifedipine] | inactive: 0.624
C/C(=C\CO)CC[C@H](C)CCC[C@H](C)CCCC(C)C | inactive: 1.51
Oc1ccc2ccccc2c1 [beta-NAPHTHOL] | inactive: 0.621
